# Source: the supplement of paper PMC4604168 (melanoma cell lines)
# The list shows a part of the results. Single values are uncertain, as repeats are few or missing.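 The apoptosis fraction was the count of cleaved-PARP antibody-stained nuclei relative to all DNA-stained nuclei, imaged in 1,536-well plates. Screening doses were set so most cells survived, and baseline and induced cleaved-PARP levels vary greatly across cell lines.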
# What was measured:
# Test in all cases: cleaved PARP positive nuclei fraction relative to DMSO control; melanoma cells; higher = more apoptosis
# Conditions in all cases: library dose: low library concentration; 72 h
# [1] = system: 501Mel
# [2] = system: A101D
# [3] = system: A2058
# [4] = system: A375
# [5] = system: C32
# [6] = system: CBRC008 (line from a melanoma biopsy)
# [7] = system: CBRC014 (line from a melanoma biopsy)
# [8] = system: CBRC016 (line from a melanoma biopsy)
# [9] = system: CBRC017 (line from a melanoma biopsy)
# [10] = system: CBRC034 (line from a melanoma biopsy)
# [11] = system: COLO792
# [12] = system: COLO800
# [13] = system: COLO829
# [14] = system: G361
# [15] = system: IPC-298
# [16] = system: IST-MEL1
# [17] = system: LB2518-MEL
# [18] = system: LOXIMVI
# [19] = system: MEL-HO
compound,measurement,setting,value
"CCCCCCCCCCCCCCCCCCOP(=O)([O-])OC1CC[N+](C)(C)CC1 [Perifosine] + COCC[n+]1c2c(n(Cc3cnccn3)c1C)C(=O)c1ccccc1C2=O [YM155] (first compound 0.4 µM, partner dose 0.0004 µM)",cleaved PARP positive nuclei fraction,[1],73.7%
same,cleaved PARP positive nuclei fraction,[2],68.4%
same,cleaved PARP positive nuclei fraction,[3],81.5%
same,cleaved PARP positive nuclei fraction,[4],70%
same,cleaved PARP positive nuclei fraction,[5],85.7%
same,cleaved PARP positive nuclei fraction,[6],408%
same,cleaved PARP positive nuclei fraction,[7],107%
same,cleaved PARP positive nuclei fraction,[8],76.7%
same,cleaved PARP positive nuclei fraction,[9],182%
same,cleaved PARP positive nuclei fraction,[10],142%
same,cleaved PARP positive nuclei fraction,[11],203%
same,cleaved PARP positive nuclei fraction,[12],125%
same,cleaved PARP positive nuclei fraction,[13],246%
same,cleaved PARP positive nuclei fraction,[14],63.6%
same,cleaved PARP positive nuclei fraction,[15],212%
same,cleaved PARP positive nuclei fraction,[16],274%
same,cleaved PARP positive nuclei fraction,[17],130%
same,cleaved PARP positive nuclei fraction,[18],67%
same,cleaved PARP positive nuclei fraction,[19],92.3%
"COc1cc([C@@H]2c3cc4c(cc3[C@@H](O[C@@H]3O[C@@H]5CO[C@@H](C)O[C@H]5[C@H](O)[C@H]3O)[C@H]3COC(=O)[C@H]23)OCO4)cc(OC)c1O [etoposide] + Cc1nc(Nc2ncc(C(=O)Nc3c(C)cccc3Cl)s2)cc(N2CCN(CCO)CC2)n1 [dasatanib] (first compound 0.02 µM, partner dose 0.004 µM)",cleaved PARP positive nuclei fraction,[1],89.5%
same,cleaved PARP positive nuclei fraction,[2],206%
same,cleaved PARP positive nuclei fraction,[3],207%
same,cleaved PARP positive nuclei fraction,[4],149%
same,cleaved PARP positive nuclei fraction,[5],189%
same,cleaved PARP positive nuclei fraction,[6],52.3%
same,cleaved PARP positive nuclei fraction,[7],108%
same,cleaved PARP positive nuclei fraction,[8],150%
same,cleaved PARP positive nuclei fraction,[9],159%
same,cleaved PARP positive nuclei fraction,[10],345%
same,cleaved PARP positive nuclei fraction,[11],131%
same,cleaved PARP positive nuclei fraction,[12],202%
same,cleaved PARP positive nuclei fraction,[13],147%
same,cleaved PARP positive nuclei fraction,[14],130%
same,cleaved PARP positive nuclei fraction,[15],172%
same,cleaved PARP positive nuclei fraction,[16],35.4%
same,cleaved PARP positive nuclei fraction,[17],131%
same,cleaved PARP positive nuclei fraction,[18],76%
same,cleaved PARP positive nuclei fraction,[19],87.3%
"CC[C@]1(O)C[C@H]2CN(CCc3c([nH]c4ccccc34)[C@@](C(=O)OC)(c3cc4c(cc3OC)N(C=O)[C@H]3[C@@](O)(C(=O)OC)[C@H](OC(C)=O)[C@]5(CC)C=CCN6CC[C@]43[C@@H]65)C2)C1 [vincristine] + C#Cc1cccc(Nc2ncnc3cc(OCCOC)c(OCCOC)cc23)c1 [erlotinib] (first compound 0.0001 µM, partner dose 0.8 µM)",cleaved PARP positive nuclei fraction,[1],154%
same,cleaved PARP positive nuclei fraction,[2],516%
same,cleaved PARP positive nuclei fraction,[3],3140%
same,cleaved PARP positive nuclei fraction,[4],584%
same,cleaved PARP positive nuclei fraction,[5],90.4%
same,cleaved PARP positive nuclei fraction,[6],255%
same,cleaved PARP positive nuclei fraction,[7],113%
same,cleaved PARP positive nuclei fraction,[8],177%
same,cleaved PARP positive nuclei fraction,[9],115%
same,cleaved PARP positive nuclei fraction,[10],301%
same,cleaved PARP positive nuclei fraction,[11],60.4%
same,cleaved PARP positive nuclei fraction,[12],72.4%
same,cleaved PARP positive nuclei fraction,[13],98.6%
same,cleaved PARP positive nuclei fraction,[14],147%
same,cleaved PARP positive nuclei fraction,[15],102%
same,cleaved PARP positive nuclei fraction,[16],208%
same,cleaved PARP positive nuclei fraction,[17],223%
same,cleaved PARP positive nuclei fraction,[18],101%
same,cleaved PARP positive nuclei fraction,[19],86%
"CCCCCCCCCCCCCCCCCCOP(=O)([O-])OC1CC[N+](C)(C)CC1 [Perifosine] + C#Cc1cccc(Nc2ncnc3cc(OCCOC)c(OCCOC)cc23)c1 [erlotinib] (first compound 0.4 µM, partner dose 0.8 µM)",cleaved PARP positive nuclei fraction,[1],65.7%
same,cleaved PARP positive nuclei fraction,[2],190%
same,cleaved PARP positive nuclei fraction,[3],46.2%
same,cleaved PARP positive nuclei fraction,[4],276%
same,cleaved PARP positive nuclei fraction,[5],74.3%
same,cleaved PARP positive nuclei fraction,[6],187%
same,cleaved PARP positive nuclei fraction,[7],94.2%
same,cleaved PARP positive nuclei fraction,[8],111%
same,cleaved PARP positive nuclei fraction,[9],97.5%
same,cleaved PARP positive nuclei fraction,[10],62.9%
same,cleaved PARP positive nuclei fraction,[11],91.7%
same,cleaved PARP positive nuclei fraction,[12],126%
same,cleaved PARP positive nuclei fraction,[13],75.1%
same,cleaved PARP positive nuclei fraction,[14],133%
same,cleaved PARP positive nuclei fraction,[15],95%
same,cleaved PARP positive nuclei fraction,[16],91.2%
same,cleaved PARP positive nuclei fraction,[17],122%
same,cleaved PARP positive nuclei fraction,[18],99.4%
same,cleaved PARP positive nuclei fraction,[19],25%
"Cc1cc(Nc2cc(N3CCN(C)CC3)nc(Sc3ccc(NC(=O)C4CC4)cc3)n2)n[nH]1 [Tozasertib] + COc1ccc(C2=N[C@@H](c3ccc(Cl)cc3)[C@@H](c3ccc(Cl)cc3)N2C(=O)N2CCNC(=O)C2)c(OC(C)C)c1 [Nutlin-3] (first compound 0.006 µM, partner dose 0.1 µM)",cleaved PARP positive nuclei fraction,[1],57.5%
same,cleaved PARP positive nuclei fraction,[2],193%
same,cleaved PARP positive nuclei fraction,[3],102%
same,cleaved PARP positive nuclei fraction,[4],61.4%
same,cleaved PARP positive nuclei fraction,[5],89.7%
same,cleaved PARP positive nuclei fraction,[6],87.3%
same,cleaved PARP positive nuclei fraction,[7],80.4%
same,cleaved PARP positive nuclei fraction,[8],91.7%
same,cleaved PARP positive nuclei fraction,[9],125%
same,cleaved PARP positive nuclei fraction,[10],122%
same,cleaved PARP positive nuclei fraction,[11],82.4%
same,cleaved PARP positive nuclei fraction,[12],79.6%
same,cleaved PARP positive nuclei fraction,[13],119%
same,cleaved PARP positive nuclei fraction,[14],115%
same,cleaved PARP positive nuclei fraction,[15],50.9%
same,cleaved PARP positive nuclei fraction,[16],113%
same,cleaved PARP positive nuclei fraction,[17],62.6%
same,cleaved PARP positive nuclei fraction,[18],57.5%
same,cleaved PARP positive nuclei fraction,[19],111%
"Cc1ccc(Nc2nccc(N(C)c3ccc4c(C)n(C)nc4c3)n2)cc1S(N)(=O)=O [Pazopanib] + CN(c1ncccc1CNc1nc(Nc2ccc3c(c2)CC(=O)N3)ncc1C(F)(F)F)S(C)(=O)=O [PF562271] (first compound 0.4 µM, partner dose 0.08 µM)",cleaved PARP positive nuclei fraction,[1],141%
same,cleaved PARP positive nuclei fraction,[2],53.4%
same,cleaved PARP positive nuclei fraction,[3],86.9%
same,cleaved PARP positive nuclei fraction,[4],121%
same,cleaved PARP positive nuclei fraction,[5],74.2%
same,cleaved PARP positive nuclei fraction,[6],40.3%
same,cleaved PARP positive nuclei fraction,[7],96%
same,cleaved PARP positive nuclei fraction,[8],93.3%
same,cleaved PARP positive nuclei fraction,[9],84.2%
same,cleaved PARP positive nuclei fraction,[10],28.2%
same,cleaved PARP positive nuclei fraction,[11],64.1%
same,cleaved PARP positive nuclei fraction,[12],82.6%
same,cleaved PARP positive nuclei fraction,[13],145%
same,cleaved PARP positive nuclei fraction,[14],68.3%
same,cleaved PARP positive nuclei fraction,[15],50.4%
same,cleaved PARP positive nuclei fraction,[16],57%
same,cleaved PARP positive nuclei fraction,[17],100%
same,cleaved PARP positive nuclei fraction,[18],81.2%
same,cleaved PARP positive nuclei fraction,[19],62.5%
"O=C(/C=C/c1cccnc1)NCCCCC1CCN(C(=O)c2ccccc2)CC1 + Nc1ccn([C@@H]2O[C@H](CO)[C@@H](O)C2(F)F)c(=O)n1 [gemcitabine] (first compound 0.01 µM, partner dose 0.0004 µM)",cleaved PARP positive nuclei fraction,[1],81.4%
same,cleaved PARP positive nuclei fraction,[2],41.7%
same,cleaved PARP positive nuclei fraction,[3],131%
same,cleaved PARP positive nuclei fraction,[4],105%
same,cleaved PARP positive nuclei fraction,[5],74.5%
same,cleaved PARP positive nuclei fraction,[6],6350%
same,cleaved PARP positive nuclei fraction,[7],133%
same,cleaved PARP positive nuclei fraction,[8],2050%
same,cleaved PARP positive nuclei fraction,[9],581%
same,cleaved PARP positive nuclei fraction,[10],473%
same,cleaved PARP positive nuclei fraction,[11],543%
same,cleaved PARP positive nuclei fraction,[12],333%
same,cleaved PARP positive nuclei fraction,[13],211%
same,cleaved PARP positive nuclei fraction,[14],6440%
same,cleaved PARP positive nuclei fraction,[15],286%
same,cleaved PARP positive nuclei fraction,[16],109%
same,cleaved PARP positive nuclei fraction,[17],613%
same,cleaved PARP positive nuclei fraction,[18],16.3%
same,cleaved PARP positive nuclei fraction,[19],65.6%
"Cc1cc(Nc2cc(N3CCN(C)CC3)nc(Sc3ccc(NC(=O)C4CC4)cc3)n2)n[nH]1 [Tozasertib] + CC[C@]1(O)C[C@H]2CN(CCc3c([nH]c4ccccc34)[C@@](C(=O)OC)(c3cc4c(cc3OC)N(C=O)[C@H]3[C@@](O)(C(=O)OC)[C@H](OC(C)=O)[C@]5(CC)C=CCN6CC[C@]43[C@@H]65)C2)C1 [vincristine] (first compound 0.006 µM, partner dose 0.0001 µM)",cleaved PARP positive nuclei fraction,[1],80.6%
same,cleaved PARP positive nuclei fraction,[2],51.2%
same,cleaved PARP positive nuclei fraction,[3],228%
same,cleaved PARP positive nuclei fraction,[4],103%
same,cleaved PARP positive nuclei fraction,[5],75.2%
same,cleaved PARP positive nuclei fraction,[6],122%
same,cleaved PARP positive nuclei fraction,[7],87.6%
same,cleaved PARP positive nuclei fraction,[8],104%
same,cleaved PARP positive nuclei fraction,[9],147%
same,cleaved PARP positive nuclei fraction,[10],122%
same,cleaved PARP positive nuclei fraction,[11],87.5%
same,cleaved PARP positive nuclei fraction,[12],271%
same,cleaved PARP positive nuclei fraction,[13],135%
same,cleaved PARP positive nuclei fraction,[14],133%
same,cleaved PARP positive nuclei fraction,[15],132%
same,cleaved PARP positive nuclei fraction,[16],123%
same,cleaved PARP positive nuclei fraction,[17],92.3%
same,cleaved PARP positive nuclei fraction,[18],133%
same,cleaved PARP positive nuclei fraction,[19],72.9%

# Random excerpt: 3 records from the list, in no set order.
compound,measurement,setting,value
"Cc1cc(Nc2cc(N3CCN(C)CC3)nc(Sc3ccc(NC(=O)C4CC4)cc3)n2)n[nH]1 [Tozasertib] + CC[C@]1(O)C[C@H]2CN(CCc3c([nH]c4ccccc34)[C@@](C(=O)OC)(c3cc4c(cc3OC)N(C=O)[C@H]3[C@@](O)(C(=O)OC)[C@H](OC(C)=O)[C@]5(CC)C=CCN6CC[C@]43[C@@H]65)C2)C1 [vincristine] (first compound 0.006 µM, partner dose 0.0001 µM)",cleaved PARP positive nuclei fraction,[14],133%
same,cleaved PARP positive nuclei fraction,[6],122%
"O=C(/C=C/c1cccnc1)NCCCCC1CCN(C(=O)c2ccccc2)CC1 + Nc1ccn([C@@H]2O[C@H](CO)[C@@H](O)C2(F)F)c(=O)n1 [gemcitabine] (first compound 0.01 µM, partner dose 0.0004 µM)",cleaved PARP positive nuclei fraction,[13],211%
